Experimental data as given in patent publication US9889184B2 (priority 2008, dated 2018).
Not every detail of the peptide structures is certain; ends, links or a residue may be inferred. No end group written: not given here. *: point of attachment. Carboxymethyl = O=C(O)C*

How the values were obtained:
[1] = system: Fusarium oxysporum f. sp. vasinfectum (Fov); test: Growth inhibition of Fov by NaD1 (microtitre OD595); format: cell-based; settings: even at a concentration ten-fold higher than the IC50 for NaD1
Description: Lyophilized NaD1 (500 μg) was dissolved in 400 μL of stock buffer (200 mM Tris-HCl pH 8.0, 2 mM EDTA, 6 M guanidine-HCl, 0.02% [v/v] Tween-20). Reduction buffer (stock buffer with 15 mM dithiothreitol [DTT]) was added (44 μL) followed by a 4.5 h incubation at 40° C. The reaction mixture was cooled to RT before iodoacetic acid (0.5 M in 1 M NaOH, 55 μL) was added and the incubation continued in the dark for 30 min at RT. A Nanosep omega (Registered) spin column (3K molecular weight cut off, PALL Life Sciences) was used to remove salts, DTT and iodoacetic acid and the protein concentration was determined using the BCA protein assay (Pierce). The effect of reduced and alkylated NaD1 (NaD1R&A) on the growth of Fusarium oxysporum (Fov) was measured as described herein.
Antifungal activity against Fusarium oxysporum f. sp. vasinfectum (Fov, Australian isolate VCG01111 isolated from cotton; from Wayne O'Neill, Farming Systems Institute, DPI, Queensland, Australia), Thielaviopsis basicola (gift from David Nehl, NSW DPI, Narrabri, Australia), Verticillium dahliae (from Helen McFadden, CSIRO Plant Industry, Black Mountain, Australia), Leptosphaeria maculans (from Barbara Howlett, University of Melbourne, Victoria, Australia) and Aspergillus nidulans (from Michael Hynes, University of Melbourne) was assessed essentially as described in Broekaert et al, 1990. […]

Fov hyphae [2] = test: Detection of reactive oxygen species (DHR123 oxidation); format: cell-based, Fusarium oxysporum f. sp. vasinfectum; settings: NaD1 0.1, 2 and 10 μM or 10 μM NaD1R&A
Description: Fov hyphae were grown as described herein and incubated with 5 μg/mL dihydrorhodamine 123 (Sigma-Aldrich) for 2 h followed by extensive washing with growth medium. […] Fluorescence was then measured on a fluorimeter with excitation and emission wavelengths of 488 nm and 538 nm respectively or visualized by fluorescence microscopy. The experiment was repeated either in the presence of ascorbic acid (10 mM) or 2,2,6,6-tetramethylpiperidine-N-oxyl (TEMPO, 3 mM).

Fov hyphae [3] = test: Membrane permeabilization of Fov hyphae, SYTOX green uptake; format: cell-based, Fusarium oxysporum f. sp. vasinfectum; settings: 0.1, 2 or 10 μM NaD1 or 10 μM NaD1R&A
Description: Fov hyphae were grown in half-strength PDB (10 mL in a 50 mL tube) from a starting concentration of 5×10^4 spores/mL for 18 h at 25° C. with constant shaking. Samples (1 mL) were then removed and NaD1 (final concentration 2 μM), NaD1R&A (final concentration 2 μM) or an equivalent volume of water was added before incubation for 2 h at RT with gentle agitation. SYTOX® green (Invitrogen-Molecular Probes, Eugene, Oreg.) was added to a final concentration of 0.5 μM and the hyphae were allowed to stand for 10 min. Hyphae (20 μL) were then transferred to microscope slides (SuperFrost (Registered) Plus, Menzel-Glaser) and covered with glass coverslips for visualization of SYTOX® green uptake using an Olympus BX51 fluorescence microscope. SYTOX® green fluorescence was detected using an MWIB filter (excitation wavelength 460-490 nm). […] SYTOX® green uptake was quantitated by measuring fluorescence of hyphae in microtitre trays using a fluorimeter (SpectraMax M2; Molecular Devices) with excitation and emission wavelengths of 488 nm and 538 nm, respectively.
The effect of temperature on membrane permeabilization of Fov hyphae by NaD1 was monitored as described, except hyphae were pre-equilibrated for 60 min at either 10°, 4° or 0° C. before addition of NaD1 and all subsequent steps were carried out at these temperatures. […]

## REC(Carboxymethyl)KTESNTFPGIC(Carboxymethyl)ITKPPC(Carboxymethyl)RKAC(Carboxymethyl)ISEKFTDGHC(Carboxymethyl)SKILRRC(Carboxymethyl)LC(Carboxymethyl)TKPC(Carboxymethyl) [NaD1R&A]
[1]
  activity in the growth inhibitory assays with Fov: completely inactive
Fov hyphae [2]
  ROS production, DHR123 fluorescence: No fluorescence was observed
Fov hyphae [3]
  permeabilization of Fov hyphal membranes (SYTOX green): Permeabilization was not observed
